This note sets out measurements from US20260265525A1, “DEVELOPMENT OF HIGHLY FLUOROGENIC STYRENE PROBES FOR VISUALIZING RNA IN LIVE CELLS” (UNIVERSITY OF SOUTHERN CALIFORNIA, priority 2023, published 2026).

This data set has as its system HeLa cells. Kind of data set: Fluorescence lifetime imaging microscopy (FLIM) in cells. In kind it is cell-based.

`C[n+]1ccc(/C=C/c2ccc3ccccn23)cc1.[I-]` [Dye 1c]: for the setting “HeLa, 20 μM”, the “fluorescence lifetime, cytoplasm” value was 1.6 ns; the “fluorescence lifetime, nucleolus” value came out at 3.4 ns; the “fluorescence lifetime, nucleus” value is given as 2.5 ns. Further, where the note is “surrounding media”, the “fluorescence lifetime, unbound dye” value is 0.82 ns.
